Laboratory results as given in US11879021B2, “Cyclic peptides and uses thereof” (UNIVERSITÉ DE MONTRÉAL, priority 2016, dated 2024).
For part of these data: Part of at least one peptide drawing is inferred or uncertain, most often the ends. Some compounds share one wording; it may come from a single statement. At least one structure is not confirmed: it was looked up by name or label, or the drawing left a doubt.

Amino acid sequences for entries named in this document (tags omitted). A change or cut given only in a name is not applied to a line headed by its entry.
UniProt Q07969: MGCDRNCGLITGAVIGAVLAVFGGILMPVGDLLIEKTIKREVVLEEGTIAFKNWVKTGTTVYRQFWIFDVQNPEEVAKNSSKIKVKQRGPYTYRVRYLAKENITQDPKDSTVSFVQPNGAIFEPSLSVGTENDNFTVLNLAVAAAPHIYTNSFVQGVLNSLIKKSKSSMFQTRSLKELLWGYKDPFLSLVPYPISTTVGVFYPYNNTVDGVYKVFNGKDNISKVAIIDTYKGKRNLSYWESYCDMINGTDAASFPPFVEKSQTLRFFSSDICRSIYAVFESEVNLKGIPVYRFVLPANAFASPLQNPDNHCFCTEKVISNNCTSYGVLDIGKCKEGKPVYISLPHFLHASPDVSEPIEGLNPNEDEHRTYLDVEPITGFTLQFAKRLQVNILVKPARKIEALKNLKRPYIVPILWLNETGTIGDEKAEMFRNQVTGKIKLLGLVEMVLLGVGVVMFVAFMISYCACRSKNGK

Key:
CD36 = biological target: T1, CD36 (Rattus norvegicus, UniProt Q07969); assay: Competition binding of photoactivatable [125I]-Tyr-Bpa-Ala-Hexarelin to CD36 in rat cardiac membranes; conditions: competition with [125I]-Tyr-Bpa-Ala-Hexarelin, rat heart membranes
T1 construct: from tissue; host or cells: Heart (cardiac membranes) of Sprague Dawley rats from Charles River
Description: Hearts from Sprague Dawley rats (300-325 g) from Charles River were cut into small pieces and homogenized with a Polytron® at low speed, 3×15 sec in buffer A (10 mM NaHCO3, 5 mM NaN3, 10 μM Pefabloc®, 0.1 μM Aprotinin, 1 μM Pepstatin A, 1 μM Leupeptin, pH 7.0) at a concentration of […] of tissue. The homogenate was first centrifuged at 8,700×g for 20 min in a Sorvall® centrifuge and the supernatant was collected on ice. The pellet was resuspended and re-homogenized with a Glass-Teflon® Potter by 5 strokes. This homogenate was recentrifuged at 8,700×g for 10 min and the resulting supernatant was combined with the first collected supernatant. The combined supernatant was centrifuged at 35,000×g for 20 min. The pellet fraction obtained was resuspended in Buffer B (20 mM Tris-maleate, 0.6M KCl, pH 6.8) in a volume corresponding to 20 mL/g of fresh tissue using a glass homogenizer with a Teflon pestle. The resulting suspension was centrifuged again at 35,000×g for 60 min. and the pellet fraction obtained was resuspended in Buffer C (10 mM Tris/HCl buffer pH 7.4) and thoroughly homogenized in a glass with a Teflon® pestle (20 ml/g of fresh tissue). This suspension was submitted to another centrifugation at 35,000×g for 60 min. The collected pellet was resuspended in 50 mM Tris/HCl buffer pH 7.4) containing 2 mM EGTA in a final volume corresponding to 1-2 mL/g of fresh tissue. The membrane preparation obtained was frozen at −80° C. Protein concentration was determined using the bicinchoninic acid (BCA) method, employing BSA as standard.
The reaction was started by adding 3 nmol of H2O2 for 5 min at room temperature. This step was repeated twice with a period of 5 min of incubation for each addition. The reaction was stopped by diluting the mixture with 1 mL of 0.1% TFA. The radioiodinated peptide was purified by HPLC on a reverse-phase Vydac® C18 column with a 60-min linear gradient from 20% to 50% of acetonitrile in 0.1% TFA. The eluted radiolabelled tracer was collected, aliquoted (50×10^6 cpm/fraction) and stored at −80° C.
Binding studies with MPE-298 were done with increasing concentrations from 0.01 to 5 μM of competition ligands. Nonspecific binding was defined as binding not displaced by 50 μM corresponding peptide. All peptide containing solutions were diluted in Buffer B. Buffer A and B were degassed under vacuum, and used in capped tubes in order to minimize lipid peroxidation. Before the incubation period, all tubes were put under a low flow of nitrogen. All material was kept on ice and the binding assay was performed in darkness. After an incubation period of 60 min at 22° C. (vortexing every 15 min), membranes were submitted to irradiation with UV lamps (365 nm) for 15 min at 4° C. After centrifugation at 12,000×g for 15 minutes, the pellets were resuspended in 40 μl of sample buffer (62 mM Tris-HCl, pH 6.8, 2% SDS, 10% glycerol, 15% 2-mercaptoethanol, and 0.05% bromophenol blue), and boiled for 5 min prior to being subjected to electrophoresis. Proteins (50 μg/40 μl) were separated on a 7.5% SDS-PAGE Bio-Rad® Mini-Protean electrophoresis system (150 V for 1 h). The gels resulting from SDS/PAGE were fixed, colored in Coomassie Brilliant Blue R-250, dried, exposed to a storage phosphor intensifying screen (Amersham Biosciences), and analysed using a Typhoon® PhosphorImager (GE Healthcare Life Sciences®). […] The curves were analysed by using software package (Graphpad® prism version 7.0).

[1] = tested on: R-FSL-1 (TLR2 agonist)-induced NO production in RAW macrophage cell line; assay: Nitric oxide (NO) production induced by TLR2 agonist R-FSL-1 in RAW macrophage cell line; type: cell-based, murine; conditions: RAW macrophages, at the concentration tested (10^−6 or 10^−7 M), FIGS. 4A to 4F
Description: The murine RAW1 macrophage cell line was obtained from American Type Cell Collection (ATCC #TIB-71), seeded at 1.5×10^5 cells/well in Dulbecco's Modified Eagle's medium (DMEM) containing 100 U/mL of penicillin (Pen) and 100 μg/mL of streptomycin (Strep) on a 48-well plate (Costar® #3548), and incubated at 37° C. with 5% CO2. After 2 h, the cell culture medium of adhered cells was removed and replaced by DMEM-Pen/Strep medium containing 0.2% of bovine serum albumin (BSA), and supplemented with the cyclic peptides at a concentration of 10^−6 or 10^−7 M. MPE-001 (DBG178, His-D-Trp-Ala-AzaTyr-D-Phe-Lys-NH2) and [azaLys^6]-GHRP-6 (His-D-Trp-Ala-Trp-D-Phe-azaLys-NH2, negative control) at 10^−6 M were used as positive and negative controls, respectively. After 1 h pre-incubation, the cells were stimulated overnight using the TLR2 ligand fibroblast-stimulating lipopeptide (R-FSL-1) (Invivogen® #L7022) at a concentration of 300 ng/mL. Supernatants were then collected for nitrite production analysis by fluorescence using 2,3-diaminonaphthalene (DAN). Briefly, 25 μL of sample was incubated with 0.5 μg of DAN in a 100 μL final volume of phosphate buffer (50 mM, pH 7.5) at room temperature in the dark. After 15 min, the reaction was stopped with 20 μL of NaOH (2.8N) and the plate was read using a fluorescence plate reader (TECAN® Safire, λexc 365 nm and λem 430 nm).

Row | Structure (SMILES) | binding to CD36 (in words) (CD36) | IC50 (CD36; read-out: IC50 (μM), binding affinity for CD36) | suppression of R-FSL-1-mediated NO production [1]
1 | C=CCN1CC#CCN(NC(=O)C(C)N)C(=O)N[C@H](Cc2c[nH]c3ccccc23)C(=O)N[C@@H](C)C(=O)N[C@@H](Cc2c[nH]c3ccccc23)C(=O)N[C@H](Cc2ccccc2)C(=O)N[C@H](C(N)=O)CCCC1 (stereo in doubt) [MPE-202] | detectable binding | – | –
2 | CCCN1CCCC[C@@H](C(N)=O)NC(=O)[C@@H](Cc2ccccc2)NC(=O)[C@H](Cc2c[nH]c3ccccc23)NC(=O)[C@H](C)NC(=O)[C@@H](Cc2c[nH]c3ccccc23)NC(=O)N(NC(=O)[C@H](C)N)CCCC1 [MPE-193] | detectable binding | 2.21 µM | –
3 | C=CCN1CC#CCN(NC(=O)C(N)C(C)C)C(=O)N[C@H](Cc2c[nH]c3ccccc23)C(=O)N[C@@H](C)C(=O)N[C@@H](Cc2c[nH]c3ccccc23)C(=O)N[C@H](Cc2ccccc2)C(=O)N[C@H](C(N)=O)CCCC1 (stereo in doubt) [MPE-203] | detectable binding | – | –
4 | C[C@@H]1NC(=O)[C@@H](Cc2c[nH]c3ccccc23)NC(=O)N(NC(=O)CN)CC#CCN(CC2CC2)CCCC[C@@H](C(N)=O)NC(=O)[C@@H](Cc2ccccc2)NC(=O)[C@H](Cc2c[nH]c3ccccc23)NC1=O [MPE-192] | detectable binding | – | significant suppression
5 | C=CCN1CC#CCN(NC(=O)CN)C(=O)N[C@H](Cc2c[nH]c3ccccc23)C(=O)N[C@@H](C)C(=O)N[C@@H](Cc2c[nH]c3ccccc23)C(=O)N[C@H](Cc2ccccc2)C(=O)N[C@H](C(N)=O)CCCC1 [MPE-201] | detectable binding | – | –
6 | CCCN1CC#CCN(NC(=O)CN)C(=O)N[C@H](Cc2c[nH]c3ccccc23)C(=O)N[C@@H](C)C(=O)N[C@@H](Cc2c[nH]c3ccccc23)C(=O)N[C@H](Cc2ccccc2)C(=O)N[C@H](C(N)=O)CCCC1 [MPE-191] | detectable binding | – | significant suppression
